According to US6410558B1, “Fungicides for the control of take-all disease of plants” (Monsanto Technology LLC, priority 1991, dated 2002):
Some results were stated once for a whole list of compounds, not compound by compound.

What follows are molecules tested on Gg (assay: Field Tests: seed treatment of wheat and barley in previously infested fields). Settings: mixed with wheat and barley seed at 0.01 to 50 g active ingredient per kg of seed.
Assay type: in vivo, Gaeumannomyces graminis
With `CCNC(=O)c1c(I)cccc1[Si](C)(C)C` [Example 207, N-Ethyl-2-iodo-6-(trimethylsilyl)benzamide] the “incidence of Gg in previously infested fields compared to check fields seeded with untreated seed” value was “reduce the incidence of Gg”.
For `CCNC(=O)c1c(Br)csc1[Si](C)(C)C` [Example 267, 4-Bromo-N-ethyl-2-(trimethylsilyl)-3-thiophenecarboxamide], the “incidence of Gg in previously infested fields compared to check fields seeded with untreated seed” value was “reduce the incidence of Gg”.
`CCNC(=O)c1ccccc1N(C)C(C)(C)C` [Example 188, 2-[(1,1-Dimethylethyl)methylamino]-N-ethylbenzamide] was tested, and the “incidence of Gg in previously infested fields compared to check fields seeded with untreated seed” value was “reduce the incidence of Gg”.
For `CCNC(=O)c1sc(C)cc1[Si](C)(C)C` [Example 256, N-Ethyl-5-methyl-3-(trimethylsilyl)-2-thiophenecarboxamide], the “incidence of Gg in previously infested fields compared to check fields seeded with untreated seed” value was “reduce the incidence of Gg”.
With `CCN(CSC)C(=O)c1c(Cl)cccc1[Si](C)(C)C` [Example 279, 2-Chloro-N-ethyl-N-[(methylthio)methyl]-6-(trimethylsilyl)benzamide] the “incidence of Gg in previously infested fields compared to check fields seeded with untreated seed” value was “reduce the incidence of Gg”.
`C=CCONC(=O)c1c([Si](C)(C)C)ccc(Cl)c1Cl` [Example 204, 2,3-Dichloro-N-(2-propenyloxy)-6-(trimethylsilyl)benzamide] was tested, and the “incidence of Gg in previously infested fields compared to check fields seeded with untreated seed” value was “reduce the incidence of Gg”.
For `CN1CCN(C(=O)c2c(Cl)cccc2[Si](C)(C)C)CC1` [Example 133, N-[2-Chloro-6-(trimethylsilyl)benzoyl]-4-methylpiperazine], the “incidence of Gg in previously infested fields compared to check fields seeded with untreated seed” value was “reduce the incidence of Gg”.
`CCNC(=O)c1sc([S+](C)[O-])cc1[Si](C)(C)C` (stereo not shown) [Example 260, N-Ethyl-5-(methylsulfinyl)-3-(trimethylsilyl)-2-thiophenecarboxamide] was tested, and the “incidence of Gg in previously infested fields compared to check fields seeded with untreated seed” value was “reduce the incidence of Gg”.
In the case of `C=CC[Si](C)(C)c1cccc(Cl)c1C(=O)NCC` [Example 179, 2-Chloro-6-(dimethyl-2-propenylsilyl)-N-ethylbenzamide], the “incidence of Gg in previously infested fields compared to check fields seeded with untreated seed” value is reported as “reduce the incidence of Gg”.
For `CCNC(=O)c1c(Cl)cccc1-c1ccccc1C` [Example 72, 3-Chloro-N-ethyl-2′-methyl-[1,1′-biphenyl]-2-carboxamide], the “incidence of Gg in previously infested fields compared to check fields seeded with untreated seed” value was “reduce the incidence of Gg”.
For `CCN(CC)C(=S)c1c(C)ccc(F)c1[Si](C)(C)C` [Example 53, N,N-Diethyl-3-fluoro-6-methyl-2-(trimethylsilyl)thiobenzamide], the “incidence of Gg in previously infested fields compared to check fields seeded with untreated seed” value was “reduce the incidence of Gg”.
For `CCCCCCCCNC(=O)c1c(Cl)cccc1[Si](C)(C)C` [Example 17, 2-Chloro-N-octyl-6-(trimethylsilyl)-benzamide], the “incidence of Gg in previously infested fields compared to check fields seeded with untreated seed” value was “reduce the incidence of Gg”.
`CCNC(=O)c1c(F)cccc1-c1ccccc1C` [Example 94, N-Ethyl-2-fluoro-6-(2-methylphenyl)benzamide] was tested, and the “incidence of Gg in previously infested fields compared to check fields seeded with untreated seed” value was “reduce the incidence of Gg”.
`CCNC(=O)c1c([Si](C)(C)C)ccc(SC)c1Cl` [Example 231, 2-Chloro-N-ethyl-3-(methylthio)-6-(trimethylsilyl)benzamide] was tested, and the “incidence of Gg in previously infested fields compared to check fields seeded with untreated seed” value was “reduce the incidence of Gg”.
For `CCN(CC)C(=O)c1c(Br)ccc(F)c1[Si](C)(C)C` [Example 37, 6-Bromo-N,N-diethyl-3-fluoro-2-(trimethylsilyl)benzamide], the “incidence of Gg in previously infested fields compared to check fields seeded with untreated seed” value was “reduce the incidence of Gg”.
For `CCNC(=O)c1sc2c(c1[Si](C)(C)C)CCCC2` [Example 274, N-Ethyl-3-(trimethylsilyl)-4,5,6,7-tetrahydrobenzo[B]thiophene-2-carboxamide], the “incidence of Gg in previously infested fields compared to check fields seeded with untreated seed” value was “reduce the incidence of Gg”.
With `CCN(CC)C(=S)c1cccc(F)c1[Si](C)(C)C` [Example 74, N,N-Diethyl-3-fluoro-2-(trimethylsilyl)thiobenzamide] the “incidence of Gg in previously infested fields compared to check fields seeded with untreated seed” value was “reduce the incidence of Gg”.
`CCCN(CCC)C(=O)c1c(Cl)cccc1[Si](C)(C)C` [Example 36, 2-Chloro-N,N-dipropyl-6-(trimethylsilyl)benzamide] was tested, and the “incidence of Gg in previously infested fields compared to check fields seeded with untreated seed” value was “reduce the incidence of Gg”.
For `CCCCCCCC[Si](C)(C)c1cccc(Cl)c1C(=O)NCC` [Example 182, 2-Chloro-6-(dimethyloctylsilyl)-N-ethylbenzamide], the “incidence of Gg in previously infested fields compared to check fields seeded with untreated seed” value was “reduce the incidence of Gg”.
In the case of `CCN(C(=O)c1ccccc1C(C)(C)C)C(OC)C(C)(C)C` (stereo not shown) [Example 186, 2-(1,1-Dimethylethyl)-N-ethyl-N-(1-methoxy-2,2-dimethylpropyl)benzamide], the “incidence of Gg in previously infested fields compared to check fields seeded with untreated seed” value is reported as “reduce the incidence of Gg”.
For `CCN(CC)C(=O)c1c(C(F)F)ccc(F)c1[Si](C)(C)C` [Example 52, N,N-Diethyl-6-(difluoromethyl)-3-fluoro-2-(trimethylsilyl)benzamide], the “incidence of Gg in previously infested fields compared to check fields seeded with untreated seed” value was “reduce the incidence of Gg”.
`CCNC(=O)c1c([Si](C)(C)C)ccc(Br)c1Cl` [Example 220, 3-Bromo-2-chloro-N-ethyl-6-(trimethylsilyl)benzamide] was tested, and the “incidence of Gg in previously infested fields compared to check fields seeded with untreated seed” value was “reduce the incidence of Gg”.
With `CC1CN(C(=O)c2c(Cl)cccc2[Si](C)(C)C)CC(C)O1` (stereo not shown) [Example 130, N-[2-Chloro-6-(trimethylsilyl)benzoyl]-2,6-dimethylmorpholine] the “incidence of Gg in previously infested fields compared to check fields seeded with untreated seed” value was “reduce the incidence of Gg”.
`C=Cc1ccc([Si](C)(C)C)c(C(=O)NCC)c1Cl` [Example 277, 2-Chloro-3-ethenyl-N-ethyl-6-(trimethylsilyl)benzamide] was tested, and the “incidence of Gg in previously infested fields compared to check fields seeded with untreated seed” value was “reduce the incidence of Gg”.
In the case of `CCNC(=O)c1c(Cl)cccc1[Si](C)(C)C1CC2CCC1C2` (stereo not shown) [Example 183, 2-(Bicyclo[2.2.1]Hept-2-yldimethylsilyl)-6-chloro-N-ethylbenzamide], the “incidence of Gg in previously infested fields compared to check fields seeded with untreated seed” value is reported as “reduce the incidence of Gg”.
For `C[Si](C)(C)c1cc(Cl)sc1C(=O)NCCO` [Example 263, 5-Chloro-N-(2-hydroxyethyl)-3-trimethylsilyl-2-thiophenecarboxamide], the “incidence of Gg in previously infested fields compared to check fields seeded with untreated seed” value was “reduce the incidence of Gg”.
For `CCNC(=O)c1c(Cl)cccc1-c1cccc2ccccc12` [Example 73, 2-Chloro-N-ethyl-6-(1-naphthalenyl)benzamide], the “incidence of Gg in previously infested fields compared to check fields seeded with untreated seed” value was “reduce the incidence of Gg”.
In the case of `CC(C)CNC(=O)c1c(Cl)cccc1[Si](C)(C)C` [Example 162, 2-Chloro-N-(2-methylpropyl)-6-(trimethylsilyl)benzamide], the “incidence of Gg in previously infested fields compared to check fields seeded with untreated seed” value is reported as “reduce the incidence of Gg”.
